For 1 substance, binding results are on record in patent US20040259122A1.

These are yes or no findings as the source states them, for the method shown. Binding seen in cells or lysates may run through a third protein. Some binding calls cover weakened binding; strength is not graded here.

Assay [1] concerns the target GST-p53 fusion protein treated with PCAF for Lys320 acetylation (UniProt P04637). In words: GST pull-down on glutathione beads, 35S-labelled in vitro translated protein, SDS-PAGE and fluorography.
The target is the same in assay [2]. Put plainly: GST pull-down (FIG. 29).

Regarding “35S-labelled, in vitro translated PIASxα (from UniProt O75928 1-572)”, the binding result in assay [1] and in assay [2] was “binds” in each case.
